Data taken from patent publication US6410249B1, “Odorant receptors” (priority 1999, dated 2002).
For part of these data: For at least one compound, name, drawing or mass did not settle the structure. Some entries share one result that the patent states for a list of compounds.

Key:
[1] = target: T1, receptor 5.24 (Carassius auratus, UniProt Q9PW88); format: binding
T1 construct: The receptor 5.24 full length cDNA detects 1-2 bands in genomic DNA blots; expressed in transfected cells; host or cells: HEK 293 cells expressing SV40 large T antigen (293-TSA)
T1 sequence (Q9PW88 25-877): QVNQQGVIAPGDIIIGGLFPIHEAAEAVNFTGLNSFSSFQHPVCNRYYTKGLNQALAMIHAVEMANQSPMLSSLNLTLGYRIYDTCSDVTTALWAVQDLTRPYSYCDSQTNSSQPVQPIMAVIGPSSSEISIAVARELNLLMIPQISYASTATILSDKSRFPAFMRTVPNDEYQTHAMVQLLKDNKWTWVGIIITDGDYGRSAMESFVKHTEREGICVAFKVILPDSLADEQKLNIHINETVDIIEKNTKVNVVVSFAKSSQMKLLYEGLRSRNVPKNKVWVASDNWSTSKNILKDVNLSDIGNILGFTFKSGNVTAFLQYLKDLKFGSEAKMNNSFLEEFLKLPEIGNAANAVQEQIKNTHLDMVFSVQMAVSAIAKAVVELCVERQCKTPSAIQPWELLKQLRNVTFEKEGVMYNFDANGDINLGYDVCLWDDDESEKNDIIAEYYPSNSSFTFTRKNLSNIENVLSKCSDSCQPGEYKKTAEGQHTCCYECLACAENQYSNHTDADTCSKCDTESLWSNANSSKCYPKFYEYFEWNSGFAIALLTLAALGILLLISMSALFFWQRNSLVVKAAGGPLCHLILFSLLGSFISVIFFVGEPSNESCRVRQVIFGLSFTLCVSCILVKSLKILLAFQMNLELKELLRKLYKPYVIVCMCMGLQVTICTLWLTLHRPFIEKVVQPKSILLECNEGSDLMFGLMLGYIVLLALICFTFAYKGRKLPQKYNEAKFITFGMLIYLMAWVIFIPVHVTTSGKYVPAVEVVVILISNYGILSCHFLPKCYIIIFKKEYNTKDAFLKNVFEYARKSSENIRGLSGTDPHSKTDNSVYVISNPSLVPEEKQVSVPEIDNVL
Description: Structure-Activity Properties of Compounds Interacting with the Cloned Goldfish Amino Acid Odorant Receptor. An understanding of how odorant receptors are used to encode olfactory information requires a characterization of the odorant specificities of individual receptor types. We therefore wished to determine the relative specificity of receptor 5.24 for structurally related ligands. […] Briefly, 3H-arginine binding to membranes from receptor 5.24-expressing HEK 293 cells was assayed in the absence or presence of varying concentrations of competitor ligands.
Mammalian Cell Culture and DNA Transfections. […] Colonies showing high levels of EGFP fluorescence (as judged by epifluorescence microscopy) were picked, expanded, and screened for 3H-L-arginine binding (see below). […]
Saturation binding assays were performed using 20-25 μg of membrane protein in a final volume of 100 μl binding buffer and increasing concentrations of [2,3-3H] […] Non-specific binding was measured in the presence of 500 μM unlabeled L-arginine. […] Filters were washed three times with 4.0 ml ice cold 20 mM Hepes, pH 7.4, and retained radioactivity was measured by scintillation counting.

[2] = target: T1, receptor 5.24; assay: evoked currents in Xenopus oocytes expressing receptor 5.24 (two-electrode voltage clamp); format: cell-based, goldfish
Description: Identification by Expression Cloning of a cDNA Encoding a Goldfish Odorant Receptor. RNA was synthesized from pools of goldfish olfactory cDNA clones (900 individual clones per pool) and injected into Xenopus oocytes together with synthetic RNAs encoding GIRK and Gaolf. Oocytes were then screened for responses upon exposure to odorant cocktails containing amino acids, bile acids, or sex pheromones. […] The response to amino acids was biphasic, beginning with an oscillating inward current above the basal inward K+ current, followed by a decline in inward current to below the basal level. Such a biphasic effect is thought to be caused by Gaq-mediated activation of phospholipase C (responsible for the intial inward current via IP3) and protein kinase C (leading to suppression of the K+ current through phosphorylation of GIRK channel subunits) (Sharon et al., 1997).
Iterative subdivision of pool 19 by sib-selection allowed the isolation of a single clone encoding a receptor, designated receptor 5.24.
Oocytes were removed from anesthetized Xenopus laevis and treated with collagenase. Forty nanograms of cRNA from each cDNA library pool (˜40 pg cRNA/clone) was injected per oocyte, together with cRNAs encoding Gaolf and the GIRK subunits Kir 3.1 and Kir 3.4 (˜30 pg each). Approximately 30 pools were assayed before these primary screens were halted. […]

NCCCCCN [Cadaverine]
Ki as multiple of the Kd for arginine or lysine [1]: greater than 10,000 times

N[C@@H](CC(=O)O)C(=O)O [L-Aspartate]
activation of receptor 5.24 (evoked currents), in words [2]: little or no response

N=C(N)NCCCCN [Agmatine]
Ki as multiple of the Kd for arginine or lysine [1]: greater than 10,000 times
